According to patent US20100266575A1:

Columns and labels:
[1] = target: sFlt-1 antigen (domains 1-3; R&D Systems) (human); assay: double-mAb sandwich CMIA on … (Example 7); positive = RLU > 400,000 at 1,000 pg/mL calibrator
[2] = target: sFlt-1 antigen (domains 1-3; R&D Systems) (human); assay: sandwich CMIA on … (Example 7): sFlt-1 antigen captured by a mAb on microparticles, PlGF-acridinium as conjugate; positive = RLU > 400,000 at 1,000 pg/mL calibrator

Binder | binding [1] | binding [2]
anti-sFlt-1 monoclonal antibody 1-833-527 (antibody, V domains shown) VH: QVQLQQSGAELVGPGSSVKISCKASGYAFSSYWMNWVKQRPGQGLEWIGQIYPGDGDTNYNGKFRGKVTLTADRSSSTADMQLSSLTSEDSAVYFCARDDGYEGFDYWGQGTTLTVSS VL: DIVMTQSQKFMSTTVGDRVSLTCKASQSVGTAVAWYQEKTGQSPKLLIYSASNRYTGVPDRFTGSGSGTDFILTIRNMQSVDLADYFCQQYFTYPYTFGGGTKLEIQR | binds | –
placental growth factor (PlGF) (ligand, UniProt P49763-2 21-149, looked up) AVPPQQWALSAGNGSSEVEVVPFQEVWGRSYCRALERLVDVVSEYPSEVEHMFSPSCVSLLRCTGCCGDENLHCVPVETANVTMQLLKIRSGDRPSYVELTFSQHVRCECRPLREKMKPERCGDAVPRR | – | binds

These are yes or no findings as the source states them, for the method shown. A result given as binding can be weak or reduced; the word gives no strength.
